Reference: the supplement of paper PMC10849652
This is one part of the list. Residues, ends and D or L forms follow the SMILES beside them. *: point of attachment. Cbz = O=C(OCc1ccccc1)*

The chains behind the UniProt entries cited, without tags or fusion partners. Where a name states a change or a piece, a line headed by the entry shows the natural chain unless it says otherwise.
UniProt Q9Y5K5, whole entry, looked up: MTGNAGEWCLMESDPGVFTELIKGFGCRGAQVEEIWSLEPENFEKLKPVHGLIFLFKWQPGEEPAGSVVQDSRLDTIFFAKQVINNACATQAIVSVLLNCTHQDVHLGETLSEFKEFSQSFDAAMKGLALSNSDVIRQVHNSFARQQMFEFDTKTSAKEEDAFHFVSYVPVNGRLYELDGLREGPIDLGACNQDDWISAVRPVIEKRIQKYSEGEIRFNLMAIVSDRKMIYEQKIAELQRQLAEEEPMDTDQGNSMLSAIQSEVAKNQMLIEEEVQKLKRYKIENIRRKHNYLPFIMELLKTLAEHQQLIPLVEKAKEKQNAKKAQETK
UniProt Q9H1C4: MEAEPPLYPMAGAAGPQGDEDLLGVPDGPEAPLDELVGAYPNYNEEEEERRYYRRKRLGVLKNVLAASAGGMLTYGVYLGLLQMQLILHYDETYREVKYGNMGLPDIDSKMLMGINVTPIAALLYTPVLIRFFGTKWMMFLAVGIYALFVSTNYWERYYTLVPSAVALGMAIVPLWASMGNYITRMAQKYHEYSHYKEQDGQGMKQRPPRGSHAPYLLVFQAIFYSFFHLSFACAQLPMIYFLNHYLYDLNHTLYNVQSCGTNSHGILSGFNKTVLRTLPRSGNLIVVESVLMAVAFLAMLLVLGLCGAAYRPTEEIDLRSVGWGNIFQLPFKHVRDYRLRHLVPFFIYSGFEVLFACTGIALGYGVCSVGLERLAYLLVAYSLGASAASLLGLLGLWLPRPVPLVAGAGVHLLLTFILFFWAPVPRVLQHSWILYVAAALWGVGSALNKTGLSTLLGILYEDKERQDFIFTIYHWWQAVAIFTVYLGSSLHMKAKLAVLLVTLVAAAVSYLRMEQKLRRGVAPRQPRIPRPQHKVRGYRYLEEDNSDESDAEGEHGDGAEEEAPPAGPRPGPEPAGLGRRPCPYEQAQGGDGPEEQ
UniProt Q93009, whole entry, looked up: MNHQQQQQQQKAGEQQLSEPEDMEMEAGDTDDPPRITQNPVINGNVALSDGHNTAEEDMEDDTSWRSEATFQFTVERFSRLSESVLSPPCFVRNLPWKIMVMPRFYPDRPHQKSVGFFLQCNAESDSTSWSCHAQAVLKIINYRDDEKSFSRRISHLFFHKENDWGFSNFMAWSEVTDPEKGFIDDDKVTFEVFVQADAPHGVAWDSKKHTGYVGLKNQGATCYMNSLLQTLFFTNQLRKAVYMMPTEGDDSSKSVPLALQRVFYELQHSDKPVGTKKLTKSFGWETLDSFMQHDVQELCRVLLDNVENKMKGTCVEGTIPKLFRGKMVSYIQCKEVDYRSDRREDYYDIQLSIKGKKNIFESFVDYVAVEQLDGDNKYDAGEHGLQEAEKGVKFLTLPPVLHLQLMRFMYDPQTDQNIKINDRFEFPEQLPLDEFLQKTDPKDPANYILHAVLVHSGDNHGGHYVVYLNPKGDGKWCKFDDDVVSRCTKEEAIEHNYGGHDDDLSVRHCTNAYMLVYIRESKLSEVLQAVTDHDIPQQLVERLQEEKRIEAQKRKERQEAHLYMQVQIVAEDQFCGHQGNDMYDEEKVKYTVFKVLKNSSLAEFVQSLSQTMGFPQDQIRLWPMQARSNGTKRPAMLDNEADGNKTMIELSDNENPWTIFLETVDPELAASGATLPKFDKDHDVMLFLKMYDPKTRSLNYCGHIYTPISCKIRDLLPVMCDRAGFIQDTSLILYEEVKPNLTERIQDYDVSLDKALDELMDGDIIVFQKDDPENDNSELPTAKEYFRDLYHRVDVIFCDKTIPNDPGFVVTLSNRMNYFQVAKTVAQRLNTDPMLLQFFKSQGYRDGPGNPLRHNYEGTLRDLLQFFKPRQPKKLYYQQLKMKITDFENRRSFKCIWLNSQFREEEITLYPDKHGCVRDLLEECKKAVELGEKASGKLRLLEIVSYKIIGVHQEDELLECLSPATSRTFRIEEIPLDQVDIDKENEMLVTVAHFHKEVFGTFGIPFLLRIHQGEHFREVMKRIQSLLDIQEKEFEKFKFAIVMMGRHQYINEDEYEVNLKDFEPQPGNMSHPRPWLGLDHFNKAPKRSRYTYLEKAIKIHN
UniProt Q14139: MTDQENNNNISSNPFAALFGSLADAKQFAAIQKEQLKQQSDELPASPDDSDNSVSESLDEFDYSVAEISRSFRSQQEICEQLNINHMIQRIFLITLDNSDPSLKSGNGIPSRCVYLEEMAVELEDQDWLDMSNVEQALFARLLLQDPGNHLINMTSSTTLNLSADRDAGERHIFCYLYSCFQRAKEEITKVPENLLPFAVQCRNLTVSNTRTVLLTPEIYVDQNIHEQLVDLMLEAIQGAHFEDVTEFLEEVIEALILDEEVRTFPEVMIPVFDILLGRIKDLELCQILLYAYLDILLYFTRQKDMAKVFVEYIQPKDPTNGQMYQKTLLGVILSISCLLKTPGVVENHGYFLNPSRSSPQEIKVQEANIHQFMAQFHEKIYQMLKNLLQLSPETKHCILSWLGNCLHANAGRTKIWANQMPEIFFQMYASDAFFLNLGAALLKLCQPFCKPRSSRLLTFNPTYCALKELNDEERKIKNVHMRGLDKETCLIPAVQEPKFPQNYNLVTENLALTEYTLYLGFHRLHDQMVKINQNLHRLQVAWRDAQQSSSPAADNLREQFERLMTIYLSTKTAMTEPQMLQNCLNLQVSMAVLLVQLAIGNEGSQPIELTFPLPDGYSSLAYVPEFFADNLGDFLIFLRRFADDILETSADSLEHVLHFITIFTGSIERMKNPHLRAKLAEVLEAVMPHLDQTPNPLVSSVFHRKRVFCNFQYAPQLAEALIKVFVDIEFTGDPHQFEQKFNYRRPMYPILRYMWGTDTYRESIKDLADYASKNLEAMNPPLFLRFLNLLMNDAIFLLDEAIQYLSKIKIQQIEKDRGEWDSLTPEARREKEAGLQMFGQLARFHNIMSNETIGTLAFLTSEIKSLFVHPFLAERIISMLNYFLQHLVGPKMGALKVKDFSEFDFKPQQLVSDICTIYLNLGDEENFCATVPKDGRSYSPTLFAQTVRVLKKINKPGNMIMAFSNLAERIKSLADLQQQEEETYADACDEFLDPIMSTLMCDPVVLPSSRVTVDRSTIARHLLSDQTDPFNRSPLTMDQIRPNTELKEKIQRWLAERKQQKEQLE
UniProt P13051, whole entry, looked up: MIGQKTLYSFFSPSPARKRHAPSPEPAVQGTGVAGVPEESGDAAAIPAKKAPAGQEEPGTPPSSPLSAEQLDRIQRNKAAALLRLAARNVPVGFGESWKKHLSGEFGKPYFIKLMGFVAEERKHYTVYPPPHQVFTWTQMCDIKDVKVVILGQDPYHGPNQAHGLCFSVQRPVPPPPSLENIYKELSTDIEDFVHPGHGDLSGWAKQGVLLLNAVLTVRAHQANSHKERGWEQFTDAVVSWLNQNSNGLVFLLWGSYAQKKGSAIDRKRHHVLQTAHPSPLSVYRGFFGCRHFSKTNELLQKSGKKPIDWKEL
UniProt Q9UHP3: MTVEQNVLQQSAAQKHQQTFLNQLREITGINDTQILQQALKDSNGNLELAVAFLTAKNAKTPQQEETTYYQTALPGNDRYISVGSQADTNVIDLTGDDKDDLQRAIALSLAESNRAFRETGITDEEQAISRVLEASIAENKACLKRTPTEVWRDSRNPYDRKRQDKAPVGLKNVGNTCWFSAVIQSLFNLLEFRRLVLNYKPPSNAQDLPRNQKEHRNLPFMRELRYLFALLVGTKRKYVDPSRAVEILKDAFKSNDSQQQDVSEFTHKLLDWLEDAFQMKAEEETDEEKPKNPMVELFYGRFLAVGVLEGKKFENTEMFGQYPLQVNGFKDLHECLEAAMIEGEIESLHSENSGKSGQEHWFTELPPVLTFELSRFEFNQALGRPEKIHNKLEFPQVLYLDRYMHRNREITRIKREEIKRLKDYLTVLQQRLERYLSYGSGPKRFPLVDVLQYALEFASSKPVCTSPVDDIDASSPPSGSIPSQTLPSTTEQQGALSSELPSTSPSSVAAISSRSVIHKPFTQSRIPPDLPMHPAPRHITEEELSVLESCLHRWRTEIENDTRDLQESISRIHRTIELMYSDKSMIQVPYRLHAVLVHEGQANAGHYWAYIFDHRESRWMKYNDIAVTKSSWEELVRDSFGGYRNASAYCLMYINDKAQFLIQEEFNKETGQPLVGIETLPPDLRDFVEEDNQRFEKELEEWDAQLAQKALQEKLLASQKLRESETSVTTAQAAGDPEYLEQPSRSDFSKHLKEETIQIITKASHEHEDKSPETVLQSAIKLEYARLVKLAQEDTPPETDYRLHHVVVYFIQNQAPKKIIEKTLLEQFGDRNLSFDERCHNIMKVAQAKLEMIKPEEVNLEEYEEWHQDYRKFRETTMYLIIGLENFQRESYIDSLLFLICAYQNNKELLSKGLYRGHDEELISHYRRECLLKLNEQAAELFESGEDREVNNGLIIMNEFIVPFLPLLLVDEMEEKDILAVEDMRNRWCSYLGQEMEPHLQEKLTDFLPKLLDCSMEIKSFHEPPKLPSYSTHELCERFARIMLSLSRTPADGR
UniProt Q969X6: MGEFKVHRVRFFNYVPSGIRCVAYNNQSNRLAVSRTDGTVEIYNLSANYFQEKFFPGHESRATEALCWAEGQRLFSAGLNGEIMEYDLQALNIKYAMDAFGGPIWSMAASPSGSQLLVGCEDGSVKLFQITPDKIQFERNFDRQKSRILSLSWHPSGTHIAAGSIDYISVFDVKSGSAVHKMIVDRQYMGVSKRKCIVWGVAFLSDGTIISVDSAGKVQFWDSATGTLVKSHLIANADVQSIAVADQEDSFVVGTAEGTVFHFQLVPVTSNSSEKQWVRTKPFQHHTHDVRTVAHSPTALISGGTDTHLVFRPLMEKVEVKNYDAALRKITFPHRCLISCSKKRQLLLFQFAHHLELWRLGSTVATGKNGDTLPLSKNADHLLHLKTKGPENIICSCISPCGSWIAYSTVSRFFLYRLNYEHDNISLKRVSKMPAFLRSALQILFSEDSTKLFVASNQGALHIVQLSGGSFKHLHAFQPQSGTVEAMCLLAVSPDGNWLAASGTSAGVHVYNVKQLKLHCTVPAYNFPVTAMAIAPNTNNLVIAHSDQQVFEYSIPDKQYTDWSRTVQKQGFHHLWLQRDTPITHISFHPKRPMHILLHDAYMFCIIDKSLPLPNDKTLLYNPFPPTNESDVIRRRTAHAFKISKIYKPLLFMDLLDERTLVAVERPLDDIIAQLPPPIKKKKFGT
UniProt P61960, whole entry, looked up: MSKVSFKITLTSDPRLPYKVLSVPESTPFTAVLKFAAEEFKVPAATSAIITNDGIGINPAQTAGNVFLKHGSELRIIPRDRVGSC
UniProt Q9UBK9, whole entry, looked up: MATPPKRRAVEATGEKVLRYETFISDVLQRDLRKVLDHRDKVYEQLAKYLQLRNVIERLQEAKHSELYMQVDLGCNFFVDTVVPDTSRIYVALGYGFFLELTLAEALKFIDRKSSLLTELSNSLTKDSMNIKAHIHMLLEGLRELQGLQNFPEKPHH
UniProt Q9BZM6: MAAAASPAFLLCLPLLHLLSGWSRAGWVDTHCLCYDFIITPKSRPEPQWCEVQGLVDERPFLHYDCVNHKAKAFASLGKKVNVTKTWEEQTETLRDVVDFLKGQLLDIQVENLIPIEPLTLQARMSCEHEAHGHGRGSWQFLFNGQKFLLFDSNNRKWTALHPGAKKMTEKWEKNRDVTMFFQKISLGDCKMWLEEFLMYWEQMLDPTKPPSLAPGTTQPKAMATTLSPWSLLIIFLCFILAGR

Tests used:
Experiment in all cases: log2 fold change, soluble protein after heating vs DMSO (PISA); higher = thermal stabilisation; K562 cells, 10 uM, 30 min; active = over 0.2 and 3.5 SD of the protein, either way, in both replicates (recomputed)
[1] = compound: C#Cc1cccc(Nc2ncnc3cc(OCCOC)c(OCCOC)cc23)c1 [erlotinib]
In short: (§1)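 K562 cells at 2×10^6 cells/mL were treated for 30 min with 10 μM compound, and aliquots were heated for 3 min over 48°C-58°C before pooling. Extraction used PBS with 0.5% NP-40 at 4°C, and soluble protein was the supernatant after 21,000xg for 90 min, measured by TMTpro 16plex LC-MS/MS with channel sums equalised. Thermal stability values, relative to control samples and from duplicates, are log2 fold changes.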

[2] = compound: C/C(=N\NC(=O)C1=CC(=CC=C1)S(=O)(=O)N2CCOCC2)/C3=C(C=CC(=C3)Cl)O
In short: as §1

[3] = compound: C1=CC(=C(C=C1Cl)C2=NC3=NC=CN=C3C(=N2)NC4=CC=NC=C4)F
In short: as §1

[4] = compound: C1=CC(=CC=C1C2=NC3=C(N2)C=C(C=C3)C(=O)N)OC4=CC=C(C=C4)Cl
In short: as §1

[5] = compound: C1=CC2=C(C=CC(=C2)/C=C\3/C(=O)NC(=NCC4=CC=CS4)S3)N=C1
In short: as §1

[6] = compound: C1=CC2=NC=CN=C2C=C1/C=C/3\C(=O)NC(=O)S3
In short: as §1

[7] = compound: C1=CC=C(C=C1)C2=NC(=C(N2)C3=CC=NC=C3)C4=CC(=C(C=C4)Cl)O
In short: as §1

[8] = compound: C1=CC=C2C(=C1)C3=NNC4=CC=CC(=C43)C2=O
In short: as §1

[9] = compound: C1CCN(C1)C(=O)NC2=CC=CC(=C2)NC3=NC=C(C(=N3)NCCC4=CN=CN4)Br
In short: as §1

[10] = compound: C1CN(CCC1(CC2=CC=C(C=C2)Cl)N)C3=NC=NC4=C3C=CN4
In short: as §1

[11] = compound: C1COCCN1CCN2C3=CC=CC=C3N=C2NC(=O)C4=CC(=CC=C4)[N+](=O)[O-] [IRAK-1-4 Inhibitor I]
In short: as §1

[12] = compound: C=CC(=O)N1CCC[C@@H](n2nc(-c3ccc(Oc4ccccc4)cc3)c3c(N)ncnc32)C1 [ibrutinib]
In short: as §1

[13] = compound: CC(=O)c1cnc2ccc(-c3cc(Cl)c(O)c(Cl)c3)nc2c1N[C@H]1CC[C@H](CN(C)C)CC1
In short: as §1

[14] = compound: CC(C)(C)Cn1c(N)nc2ccc(-c3[nH]c(C(C)(C)C)nc3-c3ccc(F)cc3)nc21 [ralimetinib]
In short: as §1

[15] = compound: CC(C)(O)CC(=O)NCCn1ccc2ncnc(Nc3ccc(Oc4cccc(C(F)(F)F)c4)c(Cl)c3)c21
In short: as §1

[16] = compound: CC(C)C1=C2N=C(C=C(N2N=C1)NCC3=CC=CC=C3)NCCCCCCN
In short: as §1

[17] = compound: CC(C)C[C@@H](C=O)NC(=O)[C@H](CC(C)C)NC(=O)[C@H](CC(C)C)NC(=O)OCc1ccccc1
In short: as §1

[18] = compound: CC(C)N(C[C@H]1O[C@@H](n2cnc3c(N)ncnc32)[C@H](O)[C@@H]1O)[C@H]1C[C@@H](CCc2nc3cc(C(C)(C)C)ccc3[nH]2)C1 [pinometostat]
In short: as §1

[19] = compound: CC1=C(C2=C(C=C1)C(=O)C3=CC=CC=C3N2CCCN)C
In short: as §1

[20] = compound: CC1=C(C(CC(=O)N1)C2=CC=C(C=C2)C(F)(F)F)C(=O)NC3=C(C=C4C(=C3)C=NN4)F
In short: as §1

Row | Target | log2 fold change [1] | log2 fold change [2] | log2 fold change [3] | log2 fold change [4] | log2 fold change [5] | log2 fold change [6] | log2 fold change [7] | log2 fold change [8] | log2 fold change [9] | log2 fold change [10] | log2 fold change [11] | log2 fold change [12] | log2 fold change [13] | log2 fold change [14] | log2 fold change [15] | log2 fold change [16] | log2 fold change [17] | log2 fold change [18] | log2 fold change [19] | log2 fold change [20]
1 | UCHL5 (UniProt Q9Y5K5) | inactive: -0.018 | inactive: 0.094 | inactive: 0.005 | inactive: -0.024 | inactive: 0.036 | inactive: 0.008 | inactive: 0.02 | inactive: 0.03 | inactive: -0.001 | inactive: -0.01 | inactive: -0.041 | inactive: -0.051 | inactive: -0.012 | inactive: 0.03 | inactive: -0.028 | inactive: -0.161 | inactive: 0.054 | inactive: -0.004 | inactive: -0.018 | –
2 | UNC93B1 (UniProt Q9H1C4) | inactive: 0.023 | inactive: -0.028 | inactive: -0.032 | inactive: -0.144 | inactive: -0.055 | inactive: 0.07 | inactive: 0.129 | inactive: -0.066 | – | – | inactive: -0.085 | inactive: -0.061 | inactive: 0.052 | inactive: -0.021 | inactive: 0.013 | inactive: -0.135 | inactive: 0.011 | inactive: 0.13 | – | inactive: 0.039
3 | USP7 (UniProt Q93009) | inactive: 0.089 | inactive: 0.139 | inactive: 0.046 | inactive: 0 | inactive: 0.159 | inactive: 0.004 | inactive: 0.068 | inactive: 0.085 | inactive: -0.04 | inactive: -0.003 | inactive: -0.102 | inactive: -0.021 | inactive: -0.078 | inactive: 0 | inactive: -0.172 | inactive: -0.198 | inactive: 0.012 | inactive: 0.024 | inactive: 0.17 | –
4 | URM1 isoform 2 (UniProt Q9BTM9) | inactive: -0.005 | inactive: -0.082 | – | inactive: 0.068 | inactive: 0.108 | inactive: 0.131 | inactive: 0.057 | inactive: 0.212 | inactive: -0.072 | inactive: 0.136 | inactive: 0.055 | inactive: -0.05 | inactive: -0.024 | inactive: -0.114 | – | inactive: -0.074 | inactive: -0.073 | inactive: 0.006 | inactive: 0.1 | inactive: -0.07
5 | UBE4A isoform 2 (UniProt Q14139) | inactive: 0.012 | inactive: 0.148 | inactive: 0.083 | inactive: -0.11 | inactive: 0.012 | inactive: 0.083 | inactive: -0.039 | inactive: -0.301 | inactive: -0.018 | inactive: -0.132 | inactive: -0.114 | inactive: -0.125 | inactive: -0.017 | inactive: 0.02 | inactive: -0.032 | active: -0.376 | inactive: 0.096 | inactive: 0.093 | inactive: 0.041 | –
6 | UGGT1 (UniProt Q9NYU2) | inactive: -0.027 | inactive: 0.016 | inactive: 0.007 | inactive: 0.007 | inactive: 0.018 | inactive: 0.014 | inactive: -0.012 | inactive: 0.019 | inactive: -0.015 | inactive: 0.005 | inactive: -0.011 | inactive: -0.027 | inactive: 0.001 | inactive: 0.001 | inactive: -0.028 | inactive: -0.007 | inactive: -0.038 | inactive: 0.028 | inactive: 0.023 | –
7 | UGCG (UniProt Q16739) | inactive: -0.034 | inactive: -0.107 | inactive: -0.105 | inactive: 0.004 | inactive: 0.014 | inactive: 0.137 | inactive: 0.107 | inactive: 0.006 | inactive: -0.456 | inactive: -0.103 | inactive: -0.071 | inactive: 0 | inactive: -0.115 | inactive: -0.068 | inactive: 0.02 | inactive: 0.046 | inactive: 0.199 | inactive: -0.023 | inactive: 0.025 | –
8 | UBR1 (UniProt Q8IWV7) | inactive: 0.233 | inactive: 0.201 | inactive: 0.006 | inactive: -0.116 | inactive: 0.009 | inactive: -0.073 | – | inactive: -0.054 | – | – | – | inactive: -0.12 | inactive: 0.072 | – | inactive: 0.023 | inactive: 0.086 | – | – | – | inactive: -0.175
9 | UEVLD (UniProt Q8IX04) | inactive: 0.081 | inactive: -0.058 | inactive: 0.073 | inactive: 0.035 | inactive: 0.037 | inactive: 0.174 | – | inactive: 0.022 | inactive: -0.118 | inactive: 0.03 | inactive: 0.061 | inactive: 0.09 | inactive: 0.014 | – | inactive: -0.231 | inactive: -0.159 | – | inactive: 0.109 | inactive: 0.224 | inactive: -0.042
10 | UNG (UniProt P13051) | inactive: 0.012 | inactive: 0.082 | inactive: -0.039 | inactive: 0.036 | inactive: -0.116 | inactive: 0.033 | – | inactive: -0.204 | inactive: -0.065 | inactive: -0.006 | – | inactive: 0.073 | inactive: -0.154 | – | inactive: 0.035 | inactive: -0.026 | – | – | inactive: -0.048 | –
11 | USP48 isoform 8 (UniProt Q86UV5) | inactive: 0.114 | inactive: 0.186 | inactive: 0.14 | inactive: -0.033 | inactive: 0.028 | inactive: -0.013 | inactive: 0.049 | inactive: -0.049 | inactive: -0.103 | inactive: -0.029 | inactive: -0.09 | inactive: -0.071 | inactive: -0.014 | inactive: 0.046 | inactive: -0.207 | inactive: -0.278 | inactive: 0.052 | inactive: 0.008 | inactive: -0.101 | –
12 | USP25 isoform 3 (UniProt Q9UHP3) | inactive: 0.007 | inactive: 0.086 | inactive: 0.02 | inactive: 0.002 | inactive: 0.028 | inactive: 0.005 | inactive: -0.024 | inactive: 0.011 | inactive: -0.038 | inactive: 0.043 | inactive: 0.002 | inactive: -0.002 | inactive: -0.019 | inactive: -0.027 | inactive: 0.015 | inactive: 0.001 | inactive: 0.052 | inactive: 0.001 | inactive: 0.002 | –
13 | UTP4 (UniProt Q969X6) | inactive: -0.05 | inactive: -0.07 | inactive: -0.009 | inactive: 0.005 | inactive: -0.082 | inactive: 0.026 | inactive: -0.022 | inactive: 0.012 | inactive: 0 | inactive: 0.06 | inactive: 0.003 | inactive: 0.002 | inactive: 0.02 | inactive: -0.07 | inactive: 0.045 | active: 0.233 | inactive: -0.014 | inactive: -0.017 | active: 0.343 | –
14 | USP20 (UniProt Q9Y2K6) | inactive: 0.024 | inactive: 0.035 | inactive: 0.012 | inactive: 0.032 | inactive: -0.016 | inactive: -0.055 | inactive: -0.056 | inactive: 0.03 | – | – | inactive: -0.07 | inactive: -0.064 | inactive: -0.055 | inactive: 0.149 | inactive: 0.078 | inactive: 0.032 | inactive: 0.244 | inactive: 0.062 | – | inactive: -0.126
15 | UFM1 isoform 2 (UniProt P61960) | inactive: -0.132 | inactive: 0.108 | inactive: 0.06 | inactive: 0.14 | inactive: 0.07 | inactive: 0.032 | – | inactive: -0.003 | inactive: 0.08 | inactive: 0.004 | – | inactive: 0.025 | inactive: 0.052 | – | inactive: 0.018 | inactive: -0.013 | – | – | inactive: 0.035 | –
16 | UXT isoform 2 (UniProt Q9UBK9) | active: 0.925 | inactive: -0.263 | inactive: 0.078 | inactive: 0.113 | inactive: 0.061 | inactive: -0.044 | inactive: -0.053 | inactive: 0.012 | inactive: -0.036 | inactive: -0.086 | inactive: 0.103 | inactive: -0.033 | inactive: -0.019 | inactive: -0.031 | inactive: -0.005 | inactive: 0.316 | inactive: 0.082 | inactive: -0.141 | inactive: 0.194 | –
17 | ULBP1 (UniProt Q9BZM6) | inactive: -0.017 | inactive: 0.011 | inactive: 0.231 | inactive: 0.044 | inactive: 0.021 | – | inactive: -0.083 | inactive: 0.037 | inactive: -0.073 | inactive: 0.078 | – | – | inactive: -0.038 | inactive: -0.058 | inactive: -0.132 | inactive: 0.112 | inactive: 0.006 | – | inactive: 0.009 | –
18 | USP13 (UniProt Q92995) | inactive: 0.04 | inactive: 0.13 | – | inactive: -0.013 | inactive: -0.166 | inactive: -0.037 | inactive: 0.158 | inactive: 0.062 | inactive: 0.029 | inactive: 0.074 | inactive: 0.031 | inactive: -0.054 | inactive: 0.11 | inactive: 0.066 | – | inactive: -0.013 | inactive: -0.122 | inactive: -0.113 | inactive: -0.069 | inactive: -0.056

Reprinted from above (two entries):
Row | Target | log2 fold change [1] | log2 fold change [2] | log2 fold change [3] | log2 fold change [4] | log2 fold change [5] | log2 fold change [6] | log2 fold change [7] | log2 fold change [8] | log2 fold change [9] | log2 fold change [10] | log2 fold change [11] | log2 fold change [12] | log2 fold change [13] | log2 fold change [14] | log2 fold change [15] | log2 fold change [16] | log2 fold change [17] | log2 fold change [18] | log2 fold change [19] | log2 fold change [20]
8 | UBR1 (UniProt Q8IWV7) | inactive: 0.233 | inactive: 0.201 | inactive: 0.006 | inactive: -0.116 | inactive: 0.009 | inactive: -0.073 | – | inactive: -0.054 | – | – | – | inactive: -0.12 | inactive: 0.072 | – | inactive: 0.023 | inactive: 0.086 | – | – | – | inactive: -0.175
9 | UEVLD (UniProt Q8IX04) | inactive: 0.081 | inactive: -0.058 | inactive: 0.073 | inactive: 0.035 | inactive: 0.037 | inactive: 0.174 | – | inactive: 0.022 | inactive: -0.118 | inactive: 0.03 | inactive: 0.061 | inactive: 0.09 | inactive: 0.014 | – | inactive: -0.231 | inactive: -0.159 | – | inactive: 0.109 | inactive: 0.224 | inactive: -0.042
